Test results reported in article PMC12370185.
The list shows a part of the results. For some of these results: At the low end of the ranking, values are background and their order means little.

Columns and labels:
Conditions in all cases: 10 mM Tris-Cl pH 7.5, 50 mM NaCl, 1 mM DTT, 0.25 mg/ml BSA, 2 mM MgCl2, 0.025% Nonidet P-40, 5% glycerol; 28 nM nucleosome library; 10 min on ice then 30 min …; high values mean tight binding; double strand, one strand shown
[1] = system: KLF4 + histone octamer; assay: EMSA with sequencing
[2] = system: SOX2 + histone octamer; assay: EMSA with sequencing
[3] = system: c-MYC + MAX + histone octamer; assay: EMSA with sequencing
[4] = system: OCT4 + histone octamer; assay: Pioneer-seq (competitive nucleosome EMSA with sequencing)
[5] = system: OCT4 + histone octamer; assay: EMSA with sequencing
[6] = system: SOX2 + histone octamer; assay: Pioneer-seq (competitive nucleosome EMSA with sequencing)

| Sequence | binding signal (log2 relative supershift) [1] | binding signal (log2 relative supershift) [2] | binding signal (log2 relative supershift) [3] | binding signal (log2 relative supershift) [4] | binding signal (log2 relative supershift) [5] | binding signal (log2 relative supershift) [6] |
| --- | --- | --- | --- | --- | --- | --- |
| GATGGACCCTATACGCGGCTGTAAAGAAATGAAAGAATGTGCACATAAATACACACACACATGCACACACACACACACGCTTGCTGACACGCATGCATACACTTTTCTCTCCATGAGAACGTCAAGTTTGTTTGAGTGGTGGTGGGGAGGTTGATGTAGAACTAGAAGAGGTTTTTGGTGTGTGCTTTAATTACATTTTTCATTCAGCTTTGCCAGTCGGATAGTGTTCC | 2.19 | 1.14 | 0.278 | -0.0413 |  |  |
| GATGGACCCTATACGCGGCACTCCTCCATAATTTCTGCTGCATCCCTCCCTCTCTAGCCACCTACTGCTTATCAAGCCAGAACATGTCTGAGGTCTAGCAGATCTGCCCAGTCATGATAGCTAAGGGCTGGGAGTTCCTGATCCCAGCTTCCTGGATATTACTGGAGCAGATCTGCCCTAGAGGCAAGGAGAAATATTGGATGATCTGCATGCCAGTCGGATAGTGTTCC | 1.67 |  | 0.0853 |  | 0.0615 | -0.631 |
| GATGGACCCTATACGCGGCGGGGGTGGGTATGCTTAGTAATACAGAGTGGTGTGTGTATGGTATATGTGTGGCAGTGCAGTGCGTGTATCTGGCATGTCGAGTGTGCACATGGCATATACGGATCAAATCGGGTGTGTGTGGTACATAGGAGTGGGTGGGCACACAAACAGGACTCATGTATGCGGAGGACTCTGCCTTTCTGTGTTAGCTGCCAGTCGGATAGTGTTCC | 2.27 | 0.645 | 0.53 | -0.501 |  |  |
| GATGGACCCTATACGCGGCGAGGCAGGTCCTGACAGGCCTGATTCTTGGGAGGATGGATGGCTCCAATTCTGGCCACTGTGACTGTGCCTGGGCCTGTTGGAGCTTGTTAGCTACCCCACCTCCCCTGAGCCAGGAGTCCGAGACTCAGGATGGGTAGGTGCTGGCTAGATACTAGTGAACTGAATAACCTCCCCCTGCAAGCTGCCCCCTGCCAGTCGGATAGTGTTCC | 2.1 | 0.0962 | 0.342 | -0.687 |  |  |
| GATGGACCCTATACGCGGCACAGAATCTCTGCCAGAGTTTACAGCCTACTGCCCTGTGGAATCTGAACAGAAGATTGCAACAGCAACTCTTATCTGCATCTCCAACCTGAAGGCCTGTCCCATGGATTTCAGACTTGTCAGCCCCCACAATCATGTGAGCCAACTCCTTAAAATGTGTGTTTATATGTGCATCCTATTGGTGTGTTTCCTTGCCAGTCGGATAGTGTTCC | 1.9 | 0.115 | 0.464 | -0.408 |  |  |
| GATGGACCCTATACGCGGCTCCCAACACCACCCTTCCTTCTTTTGATTCCAGCATGTGCGAGGATGCAGGACTCAACTACTATGCATTCAGGCTATGTTCTGCGACTGCACGGTGCACTGCTTTTGTAATGCAAATAGGAGGCACAAAGTGTCTCTTTGATAATGTGCAGTCAGAAGACAAAAAAGCATTCACTGAAACAGTAAAACTAATGCCAGTCGGATAGTGTTCC | 1.17 | 1.53 | 0.192 | -0.136 |  |  |
| GATGGACCCTATACGCGGCTAAATAAAACTGAGGTTATATAGTCATGCATTTAATAATAGTGATAGATGCAGGAGGCATGCAGATGCAGATAAGGAAACCTGCACAGGGTCTTGCCCGGGCGTGCCTGCAAGGGACTGGGGCCCACATGTGCACTAGGAGAAGGGGGTGGAGCCACCAAGAATTCATGCCTTATGCAGGGGAGGAGACTGTGCCAGTCGGATAGTGTTCC | 1.8 | 0.521 | 0.069 | -0.0295 |  |  |
| GATGGACCCTATACGCGGCTTTGTGTGGATGTGGTTGGTCAGAAGGCTTTGTGTGCACTGTGACATCTTTATGCTGCAGATGCCAAGATCACAGGGTCCACACAGAGCAGTTCATTTCACACAGTGGGAAATGATGCGTGTGTGTGTGTGGGTGGGTGTGTGTGTGTGTTTTAAAAAACCTAAACAGAGCAACACTGTTCTGTGCACTCATGCCAGTCGGATAGTGTTCC | 1.57 | 1.84 | 0.455 | -0.145 |  |  |
| GATGGACCCTATACGCGGCAGCTGAACTCATATCAGAGACAGGCTCAGCCACAAGAGACATGGAAGAATAGCCAAGAGTCTAAAATATGATTTCAACACATGATAAAGCAAGGCTGTTTCAACAGCATGGGAGGTGTACTTCTTTGAACAGCGAGCCCTGGCTTTCCATATCACAGTACCTGGCAAAGCTTTGTTTTCTTTTCAGTAATCTGCCAGTCGGATAGTGTTCC | 0.299 | 1.73 | 0.143 | -0.322 |  |  |
| GATGGACCCTATACGCGGCCCCTACAAGCACTGGTCTTGATTATTATCATCATAACTCGTGAGTGGCATGTCAGGACTTGAGTCCAGGCCATCTCACTCTAACTCCAAGTGTTTCCACTATGCCACACCCCCAGCGTGGTAGCACAGATGGCTCTGGTATAAGGAACTGTTTGAGATCAGCAGAGTGAGTTTGTCTGGATCTCACCAGCCTGCCAGTCGGATAGTGTTCC | 0.522 | 0.469 | 0.438 | -0.0202 |  |  |

A second format for some results above.
GATGGACCCTATACGCGGCTAAATAAAACTGAGGTTATATAGTCATGCATTTAATAATAGTGATAGATGCAGGAGGCATGCAGATGCAGATAAGGAAACCTGCACAGGGTCTTGCCCGGGCGTGCCTGCAAGGGACTGGGGCCCACATGTGCACTAGGAGAAGGGGGTGGAGCCACCAAGAATTCATGCCTTATGCAGGGGAGGAGACTGTGCCAGTCGGATAGTGTTCC
  binding signal (log2 relative supershift) [1]: 1.8
  binding signal (log2 relative supershift) [2]: 0.521
  binding signal (log2 relative supershift) [3]: 0.069
  binding signal (log2 relative supershift) [4]: -0.0295
GATGGACCCTATACGCGGCAGCTGAACTCATATCAGAGACAGGCTCAGCCACAAGAGACATGGAAGAATAGCCAAGAGTCTAAAATATGATTTCAACACATGATAAAGCAAGGCTGTTTCAACAGCATGGGAGGTGTACTTCTTTGAACAGCGAGCCCTGGCTTTCCATATCACAGTACCTGGCAAAGCTTTGTTTTCTTTTCAGTAATCTGCCAGTCGGATAGTGTTCC
  binding signal (log2 relative supershift) [1]: 0.299
  binding signal (log2 relative supershift) [2]: 1.73
  binding signal (log2 relative supershift) [3]: 0.143
  binding signal (log2 relative supershift) [4]: -0.322
